# From the supplement of paper PMC8728848
# This is one part of the list.
# Assays:
# Test in all cases: glycan array binding signal (z-score within array); higher = stronger binding
# Conditions in all cases: glycan notation: IUPAC condensed, linker removed
# [1] = target: Gal(b1-3)[Fuc(a1-4)]GlcNAc(b1-3)Gal(b1-4)[Fuc(a1-3)]GlcNAc
# Procedure, shortened: (§1)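 Arrays were curated from the Consortium for Functional Glycomics database, 3228 in total, and kept only where the protein sequence was available. Binding is expressed as a within-array Z-score. This score was averaged across arrays of the same protein sequence at different concentrations or buffers and across linkers, and negative values can be read as non-binding.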
# [2] = target: Gal(b1-3)[Fuc(a1-4)]GlcNAc(b1-6)GalNAc
# Procedure, shortened: as §1
# [3] = target: Gal(b1-3)[GlcNAc(b1-6)]GalNAc
# Procedure, shortened: as §1
# [4] = target: Gal(b1-3)[Neu5Ac(a2-6)]GalNAc
# Procedure, shortened: as §1
# [5] = target: Gal(b1-3)[Neu5Ac(a2-6)]GlcNAc(b1-4)Gal(b1-4)Glc
# Procedure, shortened: as §1
# [6] = target: Gal(b1-3)[Neu5Ac(b2-6)]GalNAc
# Procedure, shortened: as §1
# Gal(b1-4)Gal = target: Gal(b1-4)Gal
# Procedure, shortened: as §1
# [7] = target: Gal(b1-4)GalNAc(a1-3)[Fuc(a1-2)]Gal(b1-4)GlcNAc
# Procedure, shortened: as §1
# [8] = target: Gal(b1-4)GalNAc(b1-3)[Fuc(a1-2)]Gal(b1-4)GlcNAc
# Procedure, shortened: as §1
# Gal(b1-4)Glc = target: Gal(b1-4)Glc
# Procedure, shortened: as §1
# Gal(b1-4)Glc6S = target: Gal(b1-4)Glc6S
# Procedure, shortened: as §1
# Gal(b1-4)GlcNAc = target: Gal(b1-4)GlcNAc
# Procedure, shortened: as §1
# [9] = target: Gal(b1-4)GlcNAc(a1-6)Gal(b1-4)GlcNAc
# Procedure, shortened: as §1
# Gal(b1-4)GlcNAc(b1-2)Man = target: Gal(b1-4)GlcNAc(b1-2)Man
# Procedure, shortened: as §1
# [10] = target: Gal(b1-4)GlcNAc(b1-2)Man(a1-3)Man(b1-4)GlcNAc(b1-4)GlcNAc
# Procedure, shortened: as §1
# [11] = target: Gal(b1-4)GlcNAc(b1-2)Man(a1-3)[Gal(b1-4)GlcNAc(b1-2)Man(a1-6)]Man(b1-4)GlcNAc(b1-4)GlcNAc
# Procedure, shortened: as §1
# [12] = target: Gal(b1-4)GlcNAc(b1-2)Man(a1-3)[Gal(b1-4)GlcNAc(b1-2)Man(a1-6)]Man(b1-4)GlcNAc(b1-4)[Fuc(a1-6)]GlcNAc
# Procedure, shortened: as §1
# [13] = target: Gal(b1-4)GlcNAc(b1-2)Man(a1-3)[Gal(b1-4)GlcNAc(b1-2)Man(a1-6)][Gal(b1-4)GlcNAc(b1-4)]Man(b1-4)GlcNAc(b1-4)[Fuc(a1-6)]GlcNAc
# Procedure, shortened: as §1
# [14] = target: Gal(b1-4)GlcNAc(b1-2)Man(a1-3)[Gal(b1-4)GlcNAc(b1-2)Man(a1-6)][GlcNAc(b1-4)]Man(b1-4)GlcNAc(b1-4)[Fuc(a1-6)]GlcNAc
# Procedure, shortened: as §1
# [15] = target: Gal(b1-4)GlcNAc(b1-2)Man(a1-3)[GlcNAc(b1-2)Man(a1-6)]Man(b1-4)GlcNAc(b1-4)GlcNAc
# Procedure, shortened: as §1
# [16] = target: Gal(b1-4)GlcNAc(b1-2)Man(a1-3)[GlcNAc(b1-4)][Gal(b1-4)GlcNAc(b1-2)Man(a1-6)]Man(b1-4)GlcNAc(b1-4)GlcNAc
# Procedure, shortened: as §1
# [17] = target: Gal(b1-4)GlcNAc(b1-2)Man(a1-3)[Man(a1-6)]Man(b1-4)GlcNAc(b1-4)GlcNAc
# Procedure, shortened: as §1
# [18] = target: Gal(b1-4)GlcNAc(b1-2)Man(a1-6)Man(b1-4)GlcNAc(b1-4)GlcNAc
# Procedure, shortened: as §1
# [19] = target: Gal(b1-4)GlcNAc(b1-2)Man(a1-6)[GlcNAc(b1-2)Man(a1-3)]Man(b1-4)GlcNAc(b1-4)GlcNAc
# Procedure, shortened: as §1
# [20] = target: Gal(b1-4)GlcNAc(b1-2)Man(a1-6)[Man(a1-3)]Man(b1-4)GlcNAc(b1-4)GlcNAc
# Procedure, shortened: as §1
# [21] = target: Gal(b1-4)GlcNAc(b1-2)[Gal(b1-4)GlcNAc(b1-4)]Man(a1-3)[Gal(b1-4)GlcNAc(b1-2)Man(a1-6)]Man(b1-4)GlcNAc(b1-4)GlcNAc
# Procedure, shortened: as §1
# [22] = target: Gal(b1-4)GlcNAc(b1-2)[Gal(b1-4)GlcNAc(b1-4)]Man(a1-3)[Gal(b1-4)GlcNAc(b1-2)[Gal(b1-4)GlcNAc(b1-6)]Man(a1-6)]Man(b1-4)GlcNAc(b1-4)GlcNAc
# Procedure, shortened: as §1
# [23] = target: Gal(b1-4)GlcNAc(b1-2)[Gal(b1-4)GlcNAc(b1-4)]Man(a1-3)[GlcNAc(b1-4)][Gal(b1-4)GlcNAc(b1-2)Man(a1-6)]Man(b1-4)GlcNAc(b1-4)GlcNAc
# Procedure, shortened: as §1
# [24] = target: Gal(b1-4)GlcNAc(b1-2)[Gal(b1-4)GlcNAc(b1-4)]Man(a1-3)[GlcNAc(b1-4)][Gal(b1-4)GlcNAc(b1-2)[Gal(b1-4)GlcNAc(b1-6)]Man(a1-6)]Man(b1-4)GlcNAc(b1-4)GlcNAc
# Procedure, shortened: as §1
# [25] = target: Gal(b1-4)GlcNAc(b1-2)[Gal(b1-4)GlcNAc(b1-6)]Man(a1-6)[Gal(b1-4)GlcNAc(b1-2)Man(a1-3)]Man(b1-4)GlcNAc(b1-4)GlcNAc
# Procedure, shortened: as §1
# [26] = target: Gal(b1-4)GlcNAc(b1-2)[Gal(b1-4)GlcNAc(b1-6)]Man(a1-6)[Gal(b1-4)GlcNAc(b1-2)Man(a1-3)]Man(b1-4)GlcNAc(b1-4)[Fuc(a1-6)]GlcNAc
# Procedure, shortened: as §1
# [27] = target: Gal(b1-4)GlcNAc(b1-2)[Gal(b1-4)GlcNAc(b1-6)]Man(a1-6)[GlcNAc(b1-4)][Gal(b1-4)GlcNAc(b1-2)Man(a1-3)]Man(b1-4)GlcNAc(b1-4)GlcNAc
# Procedure, shortened: as §1
# [28] = target: Gal(b1-4)GlcNAc(b1-2)[Gal(b1-4)GlcNAc(b1-6)]Man(a1-6)[GlcNAc(b1-4)][Gal(b1-4)GlcNAc(b1-2)[Gal(b1-4)GlcNAc(b1-4)]Man(a1-3)]Man(b1-4)GlcNAc(b1-4)[Fuc(a1-6)]GlcNAc
# Procedure, shortened: as §1
# [29] = target: Gal(b1-4)GlcNAc(b1-3)Gal(b1-3)GalNAc
# Procedure, shortened: as §1
# [30] = target: Gal(b1-4)GlcNAc(b1-3)Gal(b1-3)GlcNAc
# Procedure, shortened: as §1
# [31] = target: Gal(b1-4)GlcNAc(b1-3)Gal(b1-4)Glc
# Procedure, shortened: as §1
# [32] = target: Gal(b1-4)GlcNAc(b1-3)Gal(b1-4)GlcNAc
# Procedure, shortened: as §1
# [33] = target: Gal(b1-4)GlcNAc(b1-3)Gal(b1-4)GlcNAc(b1-2)Man(a1-3)[Gal(b1-4)GlcNAc(b1-3)Gal(b1-4)GlcNAc(b1-2)Man(a1-6)]Man(b1-4)GlcNAc(b1-4)GlcNAc
# Procedure, shortened: as §1
binder,measurement,setting,value
"SUN4 (Saccharomyces cerevisiae), P53616 (protein) MGSSHHHHHHSSGLVPRGSHNGSIYGDLADFSGPYEKFEDGTIPCGQFPSGQGVIPISWLDEGGWSGVENTDTSTGGSCKEGSYCSYACQPGMSKTQWPSDQPSDGRSIGGLLCKDGYLYRSNTDTDYLCEWGVDAAYVVSELSNDVAICRTDYPGTENMVIPTYVQAGDSLPLTVVDQDTYYTWQGLKTSAQYYVNNAGISVEDACVWGSSSSGVGNWAPLNFGAGSSDGVAYLSLIPNPNNGNALNFNVKIVAADDSSTVNGECIYENGSFSGGSDGCTVSVTAGKAKFVLYN",glycan array binding signal (z-score),[1],0.705
same,glycan array binding signal (z-score),[2],0.835
same,glycan array binding signal (z-score),[3],-0.857
same,glycan array binding signal (z-score),[4],-0.568
same,glycan array binding signal (z-score),[5],-0.066
same,glycan array binding signal (z-score),[6],0.289
same,glycan array binding signal (z-score),Gal(b1-4)Gal,0.339
same,glycan array binding signal (z-score),[7],-0.574
same,glycan array binding signal (z-score),[8],-0.726
same,glycan array binding signal (z-score),Gal(b1-4)Glc,-0.225
same,glycan array binding signal (z-score),Gal(b1-4)Glc6S,-0.03
same,glycan array binding signal (z-score),Gal(b1-4)GlcNAc,-0.163
same,glycan array binding signal (z-score),[9],-0.089
same,glycan array binding signal (z-score),Gal(b1-4)GlcNAc(b1-2)Man,1.8
same,glycan array binding signal (z-score),[10],-1.26
same,glycan array binding signal (z-score),[11],-0.31
same,glycan array binding signal (z-score),[12],0.829
same,glycan array binding signal (z-score),[13],-0.052
same,glycan array binding signal (z-score),[14],-1.24
same,glycan array binding signal (z-score),[15],-0.784
same,glycan array binding signal (z-score),[16],-0.726
same,glycan array binding signal (z-score),[17],0.072
same,glycan array binding signal (z-score),[18],-1.01
same,glycan array binding signal (z-score),[19],-0.75
same,glycan array binding signal (z-score),[20],-0.198
same,glycan array binding signal (z-score),[21],0.116
same,glycan array binding signal (z-score),[22],-0.984
same,glycan array binding signal (z-score),[23],0.208
same,glycan array binding signal (z-score),[24],-0.203
same,glycan array binding signal (z-score),[25],-0.167
same,glycan array binding signal (z-score),[26],1.36
same,glycan array binding signal (z-score),[27],-0.281
same,glycan array binding signal (z-score),[28],0.27
same,glycan array binding signal (z-score),[29],-0.696
same,glycan array binding signal (z-score),[30],-0.224
same,glycan array binding signal (z-score),[31],-0.568
same,glycan array binding signal (z-score),[32],-0.967
same,glycan array binding signal (z-score),[33],2.66

# Two records drawn at random from the list so far, as already listed:
binder,measurement,setting,value
"SUN4 (Saccharomyces cerevisiae), P53616 (protein) MGSSHHHHHHSSGLVPRGSHNGSIYGDLADFSGPYEKFEDGTIPCGQFPSGQGVIPISWLDEGGWSGVENTDTSTGGSCKEGSYCSYACQPGMSKTQWPSDQPSDGRSIGGLLCKDGYLYRSNTDTDYLCEWGVDAAYVVSELSNDVAICRTDYPGTENMVIPTYVQAGDSLPLTVVDQDTYYTWQGLKTSAQYYVNNAGISVEDACVWGSSSSGVGNWAPLNFGAGSSDGVAYLSLIPNPNNGNALNFNVKIVAADDSSTVNGECIYENGSFSGGSDGCTVSVTAGKAKFVLYN",glycan array binding signal (z-score),[27],-0.281
same,glycan array binding signal (z-score),[17],0.072
